According to the supplement of paper PMC12595434, “Development of retinoid nuclear receptor pathway antagonists through targeting aldehyde dehydrogenase 1A3” (iScience, 2025):
Some of the results follow. Single values of this set are uncertain.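 Many melting curves are irregular; where none melted, Tm was taken as 64 °C.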

Sequences of proteins named here, by UniProt entry; tags and fusion partners are left off. A change or cut given only in a name is not applied to a line headed by its entry.
UniProt Q9BRX8: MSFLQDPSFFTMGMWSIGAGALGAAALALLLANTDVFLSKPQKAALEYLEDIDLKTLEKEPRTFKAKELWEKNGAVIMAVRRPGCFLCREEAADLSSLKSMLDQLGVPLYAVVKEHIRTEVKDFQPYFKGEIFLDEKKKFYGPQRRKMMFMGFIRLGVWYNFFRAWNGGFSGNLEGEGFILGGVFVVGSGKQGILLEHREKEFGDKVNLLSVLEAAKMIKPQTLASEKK
UniProt Q9BQE5: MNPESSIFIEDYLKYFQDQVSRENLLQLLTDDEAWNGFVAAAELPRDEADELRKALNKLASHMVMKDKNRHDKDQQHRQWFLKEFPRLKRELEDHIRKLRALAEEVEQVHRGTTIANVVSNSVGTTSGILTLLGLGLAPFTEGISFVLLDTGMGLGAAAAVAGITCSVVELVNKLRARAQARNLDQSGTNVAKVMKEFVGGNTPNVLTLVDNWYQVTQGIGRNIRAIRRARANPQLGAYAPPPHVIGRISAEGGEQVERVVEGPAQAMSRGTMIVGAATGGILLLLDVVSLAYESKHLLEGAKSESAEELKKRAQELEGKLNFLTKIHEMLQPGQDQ
UniProt Q99576: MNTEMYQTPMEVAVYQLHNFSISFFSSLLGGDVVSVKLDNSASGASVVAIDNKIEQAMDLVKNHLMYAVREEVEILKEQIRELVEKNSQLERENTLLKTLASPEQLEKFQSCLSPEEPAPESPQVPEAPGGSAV
UniProt Q9BSF4: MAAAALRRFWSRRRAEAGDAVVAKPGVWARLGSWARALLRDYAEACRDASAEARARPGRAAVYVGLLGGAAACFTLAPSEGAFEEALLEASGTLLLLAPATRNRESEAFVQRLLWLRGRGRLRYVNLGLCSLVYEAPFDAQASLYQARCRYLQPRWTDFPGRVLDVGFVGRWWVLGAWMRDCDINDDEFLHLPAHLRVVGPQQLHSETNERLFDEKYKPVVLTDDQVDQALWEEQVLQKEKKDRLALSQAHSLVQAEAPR
UniProt Q9BXB5: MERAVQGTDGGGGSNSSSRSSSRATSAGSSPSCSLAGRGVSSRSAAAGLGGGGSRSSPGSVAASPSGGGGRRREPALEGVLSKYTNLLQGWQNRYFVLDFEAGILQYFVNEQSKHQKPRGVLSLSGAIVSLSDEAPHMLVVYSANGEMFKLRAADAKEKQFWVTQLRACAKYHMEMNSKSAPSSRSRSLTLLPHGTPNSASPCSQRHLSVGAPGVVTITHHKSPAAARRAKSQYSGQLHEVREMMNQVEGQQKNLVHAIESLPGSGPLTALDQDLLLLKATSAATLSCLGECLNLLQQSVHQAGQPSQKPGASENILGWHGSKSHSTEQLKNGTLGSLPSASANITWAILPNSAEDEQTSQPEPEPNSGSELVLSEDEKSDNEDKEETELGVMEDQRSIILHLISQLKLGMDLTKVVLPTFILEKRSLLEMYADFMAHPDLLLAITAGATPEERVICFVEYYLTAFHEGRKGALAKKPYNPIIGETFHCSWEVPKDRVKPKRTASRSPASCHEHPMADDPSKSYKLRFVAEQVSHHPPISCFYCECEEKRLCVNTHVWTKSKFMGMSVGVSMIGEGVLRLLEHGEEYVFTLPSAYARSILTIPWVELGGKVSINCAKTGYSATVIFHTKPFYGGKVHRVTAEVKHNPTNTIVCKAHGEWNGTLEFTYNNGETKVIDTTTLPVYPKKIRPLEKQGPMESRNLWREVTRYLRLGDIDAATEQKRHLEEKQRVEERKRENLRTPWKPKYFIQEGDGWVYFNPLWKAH
UniProt Q9BY66, whole entry: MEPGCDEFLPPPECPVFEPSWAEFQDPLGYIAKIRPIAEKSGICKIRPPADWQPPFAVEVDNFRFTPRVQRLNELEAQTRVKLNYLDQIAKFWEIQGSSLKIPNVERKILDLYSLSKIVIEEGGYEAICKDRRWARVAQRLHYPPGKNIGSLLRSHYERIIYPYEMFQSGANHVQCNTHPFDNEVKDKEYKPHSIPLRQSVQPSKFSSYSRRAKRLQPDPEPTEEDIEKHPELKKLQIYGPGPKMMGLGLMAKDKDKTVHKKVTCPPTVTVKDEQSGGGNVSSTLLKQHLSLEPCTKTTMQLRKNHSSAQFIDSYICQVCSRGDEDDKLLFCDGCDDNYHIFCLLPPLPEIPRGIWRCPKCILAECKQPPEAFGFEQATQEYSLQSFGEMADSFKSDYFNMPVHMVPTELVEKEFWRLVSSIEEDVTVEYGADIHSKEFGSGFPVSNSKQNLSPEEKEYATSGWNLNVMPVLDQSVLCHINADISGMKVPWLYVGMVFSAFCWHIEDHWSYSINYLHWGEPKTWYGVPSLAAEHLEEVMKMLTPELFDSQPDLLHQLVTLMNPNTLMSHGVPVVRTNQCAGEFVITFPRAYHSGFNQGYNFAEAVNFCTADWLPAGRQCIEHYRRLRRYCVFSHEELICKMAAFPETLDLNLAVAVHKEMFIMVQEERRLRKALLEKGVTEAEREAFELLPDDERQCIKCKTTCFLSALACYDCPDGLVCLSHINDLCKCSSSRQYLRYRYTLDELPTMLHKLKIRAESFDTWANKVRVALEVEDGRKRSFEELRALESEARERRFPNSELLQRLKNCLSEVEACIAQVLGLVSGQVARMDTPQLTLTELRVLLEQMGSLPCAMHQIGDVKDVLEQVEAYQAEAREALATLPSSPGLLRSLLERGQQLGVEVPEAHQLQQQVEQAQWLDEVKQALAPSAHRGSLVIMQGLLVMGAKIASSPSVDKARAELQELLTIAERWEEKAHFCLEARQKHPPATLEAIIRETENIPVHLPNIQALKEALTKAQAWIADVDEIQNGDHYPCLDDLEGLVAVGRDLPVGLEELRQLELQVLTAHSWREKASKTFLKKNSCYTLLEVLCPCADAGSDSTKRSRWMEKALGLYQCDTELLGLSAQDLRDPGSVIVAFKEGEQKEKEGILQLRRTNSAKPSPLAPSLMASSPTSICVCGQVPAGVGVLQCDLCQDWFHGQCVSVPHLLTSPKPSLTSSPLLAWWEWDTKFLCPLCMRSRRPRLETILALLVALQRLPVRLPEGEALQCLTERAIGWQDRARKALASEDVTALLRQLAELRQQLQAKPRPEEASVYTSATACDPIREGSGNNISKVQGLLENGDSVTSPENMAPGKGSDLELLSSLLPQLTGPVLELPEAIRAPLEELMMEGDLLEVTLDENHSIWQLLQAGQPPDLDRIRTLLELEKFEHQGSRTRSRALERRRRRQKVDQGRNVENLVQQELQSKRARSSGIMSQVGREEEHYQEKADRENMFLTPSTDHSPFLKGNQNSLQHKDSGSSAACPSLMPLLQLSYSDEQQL
UniProt Q9BSQ5: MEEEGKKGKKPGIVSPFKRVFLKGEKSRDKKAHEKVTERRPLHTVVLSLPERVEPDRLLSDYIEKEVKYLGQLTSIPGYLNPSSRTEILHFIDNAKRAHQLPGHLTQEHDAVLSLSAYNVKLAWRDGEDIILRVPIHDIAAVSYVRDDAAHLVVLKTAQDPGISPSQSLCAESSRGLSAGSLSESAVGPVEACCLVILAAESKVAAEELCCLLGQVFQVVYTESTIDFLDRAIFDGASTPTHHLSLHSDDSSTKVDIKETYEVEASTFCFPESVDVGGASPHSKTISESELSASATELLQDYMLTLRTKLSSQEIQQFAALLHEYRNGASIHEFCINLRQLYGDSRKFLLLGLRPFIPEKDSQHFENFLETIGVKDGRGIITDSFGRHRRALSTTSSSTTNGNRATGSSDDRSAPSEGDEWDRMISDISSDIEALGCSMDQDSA
UniProt Q99623, whole entry: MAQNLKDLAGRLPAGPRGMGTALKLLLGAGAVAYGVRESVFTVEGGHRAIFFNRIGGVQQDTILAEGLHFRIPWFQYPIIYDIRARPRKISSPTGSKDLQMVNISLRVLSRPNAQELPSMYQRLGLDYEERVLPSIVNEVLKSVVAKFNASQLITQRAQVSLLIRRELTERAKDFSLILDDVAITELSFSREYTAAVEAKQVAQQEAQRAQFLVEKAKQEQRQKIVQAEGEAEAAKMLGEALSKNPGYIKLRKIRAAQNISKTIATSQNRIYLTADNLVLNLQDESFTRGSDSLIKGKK
UniProt Q9BT22: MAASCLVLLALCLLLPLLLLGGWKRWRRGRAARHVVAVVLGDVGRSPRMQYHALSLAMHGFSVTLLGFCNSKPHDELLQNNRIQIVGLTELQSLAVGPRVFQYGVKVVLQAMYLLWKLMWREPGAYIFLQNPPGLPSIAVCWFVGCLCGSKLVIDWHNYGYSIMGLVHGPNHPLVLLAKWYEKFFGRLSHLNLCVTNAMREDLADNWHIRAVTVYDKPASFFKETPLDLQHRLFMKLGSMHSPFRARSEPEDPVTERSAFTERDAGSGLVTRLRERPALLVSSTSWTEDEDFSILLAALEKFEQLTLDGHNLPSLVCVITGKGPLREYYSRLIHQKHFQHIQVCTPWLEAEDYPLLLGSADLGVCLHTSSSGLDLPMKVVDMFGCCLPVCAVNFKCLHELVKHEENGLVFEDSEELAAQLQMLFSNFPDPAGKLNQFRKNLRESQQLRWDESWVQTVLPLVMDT
UniProt Q9BSJ8: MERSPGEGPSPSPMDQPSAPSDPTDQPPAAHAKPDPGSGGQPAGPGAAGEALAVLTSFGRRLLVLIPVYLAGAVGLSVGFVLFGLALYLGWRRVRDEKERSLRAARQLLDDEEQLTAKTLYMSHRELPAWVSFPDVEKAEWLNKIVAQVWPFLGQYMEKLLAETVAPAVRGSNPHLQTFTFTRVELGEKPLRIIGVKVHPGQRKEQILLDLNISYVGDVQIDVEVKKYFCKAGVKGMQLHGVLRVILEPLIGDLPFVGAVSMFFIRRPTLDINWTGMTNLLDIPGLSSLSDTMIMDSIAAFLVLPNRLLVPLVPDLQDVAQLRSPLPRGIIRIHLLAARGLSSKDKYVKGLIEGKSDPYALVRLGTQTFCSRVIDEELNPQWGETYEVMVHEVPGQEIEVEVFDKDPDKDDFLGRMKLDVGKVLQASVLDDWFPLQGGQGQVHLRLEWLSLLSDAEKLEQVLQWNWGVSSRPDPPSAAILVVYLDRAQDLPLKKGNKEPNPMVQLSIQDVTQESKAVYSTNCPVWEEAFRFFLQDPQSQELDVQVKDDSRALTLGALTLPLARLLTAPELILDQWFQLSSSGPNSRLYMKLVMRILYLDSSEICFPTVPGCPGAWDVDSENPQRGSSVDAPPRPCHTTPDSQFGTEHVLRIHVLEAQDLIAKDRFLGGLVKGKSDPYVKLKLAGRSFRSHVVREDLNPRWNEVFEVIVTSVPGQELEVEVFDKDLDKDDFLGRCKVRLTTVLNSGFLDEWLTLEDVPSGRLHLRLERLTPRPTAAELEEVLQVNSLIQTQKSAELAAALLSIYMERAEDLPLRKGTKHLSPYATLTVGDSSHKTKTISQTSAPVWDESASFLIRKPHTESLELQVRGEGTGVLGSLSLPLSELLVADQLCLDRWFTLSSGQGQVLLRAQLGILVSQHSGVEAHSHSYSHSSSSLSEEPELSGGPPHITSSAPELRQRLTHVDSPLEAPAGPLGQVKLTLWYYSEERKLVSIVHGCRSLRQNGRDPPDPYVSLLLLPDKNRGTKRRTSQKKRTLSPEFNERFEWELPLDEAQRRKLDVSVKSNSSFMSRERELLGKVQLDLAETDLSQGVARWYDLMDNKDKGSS
UniProt Q9BRQ6: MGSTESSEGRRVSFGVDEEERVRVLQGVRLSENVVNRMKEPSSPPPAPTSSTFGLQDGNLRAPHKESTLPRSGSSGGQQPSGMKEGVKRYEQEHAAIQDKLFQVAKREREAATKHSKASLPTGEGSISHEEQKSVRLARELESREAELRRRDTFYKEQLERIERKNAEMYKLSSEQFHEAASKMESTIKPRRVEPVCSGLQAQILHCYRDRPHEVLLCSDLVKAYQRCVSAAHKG
UniProt Q9BQG2: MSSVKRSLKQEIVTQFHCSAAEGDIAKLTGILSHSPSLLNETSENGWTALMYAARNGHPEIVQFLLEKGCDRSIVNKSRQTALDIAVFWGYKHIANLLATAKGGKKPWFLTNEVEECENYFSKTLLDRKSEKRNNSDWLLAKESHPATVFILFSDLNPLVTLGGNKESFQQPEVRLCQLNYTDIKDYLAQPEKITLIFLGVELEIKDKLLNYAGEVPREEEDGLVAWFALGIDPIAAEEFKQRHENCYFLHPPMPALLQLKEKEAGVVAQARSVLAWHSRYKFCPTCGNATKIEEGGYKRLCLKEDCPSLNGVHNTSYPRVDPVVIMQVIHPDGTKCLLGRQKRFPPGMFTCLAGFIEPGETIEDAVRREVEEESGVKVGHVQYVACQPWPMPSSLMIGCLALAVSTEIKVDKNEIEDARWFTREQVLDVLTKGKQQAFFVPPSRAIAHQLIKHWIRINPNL
UniProt Q9BY49: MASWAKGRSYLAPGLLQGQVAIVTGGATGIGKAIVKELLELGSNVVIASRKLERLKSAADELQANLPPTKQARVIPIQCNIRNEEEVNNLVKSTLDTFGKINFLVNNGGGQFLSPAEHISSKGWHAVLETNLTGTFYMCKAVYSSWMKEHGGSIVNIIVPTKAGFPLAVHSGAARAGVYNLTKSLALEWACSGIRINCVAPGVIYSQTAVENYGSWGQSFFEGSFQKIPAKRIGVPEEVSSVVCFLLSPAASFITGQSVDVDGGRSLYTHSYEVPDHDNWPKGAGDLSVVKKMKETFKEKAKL

Compound: CCc1cnccc1C(=O)Nc1cc2c(cc1F)NC(=O)CC2
Assay: melting temperature shift (DMSO Tm minus MBE1-treated Tm) in cellular thermal proteome profiling; higher = less thermal stabilization by MBE1 (negative = stabilized by MBE1)
Conditions: A375; MBE1 concentration: 1 uM

Target | melting temperature shift
EDEM2 (UniProt Q9BV94) | -2.68 °C
ELOVL1 (UniProt Q9BW60) | 0.385 °C
UniProt Q99550 | -2.04 °C
SH3GL1 (UniProt Q99961) | -0.715 °C
FAM213A (UniProt Q9BRX8) | 0.183 °C
UniProt Q99973 | 0.824 °C
APOL2 (UniProt Q9BQE5) | -0.427 °C
MGLL (UniProt Q99685) | 0 °C
UniProt Q99576 | -0.445 °C
APOO (UniProt Q9BUR5) | -2.76 °C
C19ORF52 (UniProt Q9BSF4) | 0.416 °C
UniProt Q9BTV5 | -0.33 °C
UniProt Q9BX66 | 0.183 °C
UniProt Q9BS18 | -2.27 °C
EIF3C (UniProt Q99613) | -0.358 °C
DHRS4 (UniProt Q9BTZ2) | 1.62 °C
DDX23 (UniProt Q9BUQ8) | -1.68 °C

Target | melting temperature shift
PYM1 (UniProt Q9BRP8) | -3 °C
OSBPL10 (UniProt Q9BXB5) | -0.339 °C
UniProt Q9BY66 | -0.535 °C
UniProt Q9BSQ5 | 0.189 °C
SLC29A1 (UniProt Q99808) | -7.15 °C
PHB2 (UniProt Q99623) | 0.0236 °C
ALG1 (UniProt Q9BT22) | 0.409 °C
ESYT1 (UniProt Q9BSJ8) | -0.216 °C
MAPKAP1 (UniProt Q9BPZ7) | 0.0518 °C
CHCHD6 (UniProt Q9BRQ6) | -1.88 °C
BCL7B (UniProt Q9BQE9) | -2.92 °C
UniProt Q9BSJ6 | 1.34 °C
AKAP9 (UniProt Q99996) | -0.226 °C
NUDT12 (UniProt Q9BQG2) | 0.11 °C
UniProt Q9BR77 | 0.269 °C
UniProt Q9BY49 | 1.01 °C

3 entries from above in another layout:
Target,melting temperature shift
BCL7B (UniProt Q9BQE9),-2.92 °C
UniProt Q9BSJ6,1.34 °C
AKAP9 (UniProt Q99996),-0.226 °C
